{"source": "patent US9492422B2", "about": "“Therapeutic or prophylactic agent for diabetes” (Toray Industries, Inc., priority 2009, dated 2016)", "key": {"KKAy mice [1]": {"tested_on": "KKAy mice", "assay": "Casual blood glucose level before and after drug administration in KKAy mice", "format": "in vivo", "settings": "male KKAy mice, paired t-test", "method": "For the experiment, male KKAy mice (CLEA Japan, Inc.) were used. KKAy mice show obesity and high blood glucose from 7 or 8 weeks old, and are commonly used as model mice for type 2 diabetes. The KKAy mice were purchased when they were 5 weeks old, and, from immediately thereafter, fed with CMF feed (Oriental Yeast Co., Ltd.) for 3 weeks under free food/water intake conditions, before being subjected to the experiment. […]\nThe body weight and the casual blood glucose level were measured on the day before starting of the continuous administration of physiological saline or BPS (these correspond to the data shown in the “Before administration” columns in Tables 1 and 2). The body weight was measured when 0.5% MC solution or pioglitazone hydrochloride was finally administered, and the casual blood glucose level was measured about 18 hours after the final administration (these correspond to the data shown in the “After administration” columns in Tables 1 and 2). The casual blood glucose level was measured by collecting about 5 μL of blood from the tail vein and subjecting the blood to measurement with a simplified blood glucose meter (Medisense Precision Xceed, ABBOTT JAPAN Co., LTD.)."}, "KKAy mice [2]": {"tested_on": "KKAy mice", "assay": "Glucose tolerance test after drug administration in KKAy mice", "format": "in vivo", "settings": "male KKAy mice, BPS 1 mg/kg/day s.c. and/or pioglitazone hydrochloride 3 mg/kg p.o.", "method": "For the experiment, male KKAy mice (CLEA Japan, Inc.) were used. […] Pioglitazone hydrochloride was administered as a suspension in 0.5% MC solution. […] The continuous administration of physiological saline or BPS was carried out until the end of the experiment. The experimental groups were as follows: • (1) Control group (n=6): physiological saline (6 μL/day)+0.5% MC solution (10 mL/kg) • (2) BPS group (n=5): BPS (1 mg/kg/day)+0.5% MC solution (10 mL/kg) • (3) Pioglitazone hydrochloride 3 mg group (n=5): physiological saline (6 μL/day)+pioglitazone hydrochloride (3 mg/kg) • (4) BPS/pioglitazone hydrochloride 3 mg-combined-use group (n=6): BPS (1 mg/kg/day)+pioglitazone hydrochloride (3 mg/kg) • (5) Pioglitazone hydrochloride 30 mg group (n=6): physiological saline (6 μL/day)+pioglitazone hydrochloride (30 mg/kg). […] The increase in the blood glucose level at each timing relative to the blood glucose level observed immediately before the administration of glucose (0 minute) was defined as Δblood glucose level. The length of time (minutes) after the administration of glucose was plotted along the abscissa and Δblood glucose level (mg/dL) was plotted along the ordinate, to calculate the area under the Δblood glucose level-time curve from 0 minute to 120 minutes (ΔAUC0-120)."}}, "note": "Where a name gives a salt, the structure may show the parent alone. At least one structure is not confirmed: it was looked up by name or label, or the drawing left a doubt.", "data": [{"smiles": "CCc1ccc(CCOc2ccc(CC3SC(=O)NC3=O)cc2)nc1", "note": "(stereo not drawn) [Pioglitazone hydrochloride, pioglitazone hydrochloride]", "values": [{"measurement": "Change in casual blood glucose level compared to the value before drug administration", "setting": "KKAy mice [1]; BPS 1 mg/kg/day s.c. and/or pioglitazone hydrochloride 3 mg/kg p.o.", "value": "no change"}, {"measurement": "Change in casual blood glucose level compared to the value before drug administration", "setting": "KKAy mice [1]; pioglitazone hydrochloride 30 mg/kg p.o.", "value": "significant decrease"}, {"measurement": "Change in ΔAUC0-120 compared to the control group", "setting": "KKAy mice [2]", "value": "no change"}]}]}
